Reference: PubChem BioAssay AID720505 (Drosophila RNAi Screening Center, 2013)
Purpose: 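Fly regulators or components of the CRAC channel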 (primary screen). Cell system: Drosophila S2R+ cells. Reagent: long dsRNA against Drosophila genes. Conditions: thapsigargin (2 µM) in calcium-free buffer to empty internal stores, then 2 mM calcium added back. Detection: 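Fluo-4 signal in 384-well plates read on a FLIPR after thapsigargin (2 µM, calcium-free) store depletion and 2 mM calcium add-back; unnormalised mean endpoint per well; screen run twice, selected wells retested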. Direction: calcium signal and retest calcium signal: higher = more calcium entry after store depletion. Call rule: 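Knock-downs counted as hits when calcium entry dropped relative to STIM1 positive and Rho1 negative controls present on each plate; roughly 1500 genes called, with reductions of differing size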. Meaning of the calls: active = called as lowering calcium entry; inactive = not called.
In all, the deposit lists about 20,000 reagents; shown is a random part of those with a known target gene and a result. Over the whole deposit, about 2,100 (10%) were called active. 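Raw plate signals without normalisation; calls rest on control-based scores that were not deposited; replicate 2 separates called from uncalled poorly.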 A number with no mark means an inactive call. A plus sign joins genes that one reagent is predicted to hit. Not stated in the record: the amount of reagent, the time to read-out.

no.	gene	amplicon	calcium signal, replicate 1	calcium signal, replicate 2	retest calcium signal, replicate 1	retest calcium signal, replicate 2
1	CG3513 (GeneID 33590)	DRSC00608	136	114		
2	CG15919 (GeneID 50216)	DRSC06594	126	154		
3	Vajk3 (GeneID 34812)	DRSC01883	99.1	141		
4	ND-B14.5B (GeneID 33528)	DRSC00346	78.4	118		
5	kek3 (GeneID 34912)	DRSC03553	158	110	114	122
6	kek3 (GeneID 34912)	DRSC22830	123	105		
7	CG9624 (GeneID 41730)	DRSC16523	94.7	75.2		
8	Atg1 (GeneID 39454)	DRSC09809	91.6	120		
9	Atg1 (GeneID 39454)	DRSC09810	69.3	105		
10	CG1635 (GeneID 43720)	DRSC15131	77.9	102		
11	SMC3 (GeneID 32627)	DRSC20227	76.8	118		
12	Ir85a (GeneID 41052)	DRSC14382	108	160		
13	lov (GeneID 38007)	DRSC04665	67.6 (active)	51.1	90	186
14	esc (GeneID 34595)	DRSC03529	147	131		
15	YL-1 (GeneID 34516)	DRSC02765	162	122		
16	GILT1 (GeneID 41650)	DRSC16565	107	166		
17	CG12784 (GeneID 41903)	DRSC14539	130	112		
18	ckd (GeneID 38402)	DRSC08418	83.7	108		
19	CG42241 (retired record) (GeneID 7354372)	DRSC04007	104	104		
20	Or9a (GeneID 31975)	DRSC18692	83.1	111		
21	Cpr30F (GeneID 318997)	DRSC02908	91.2	117		
22	CR40282 (GeneID 12798062)	DRSC07814	91.8	122		
23	CG31933 (GeneID 326176)	DRSC00457	226	170		
24	yellow-b (GeneID 35005)	DRSC03639	70.7	95.1		
25	Polr2G (GeneID 261631)	DRSC16068	70.8 (active)	108		
26	alpha-Est1 (GeneID 40909)	DRSC12612	92.7	115		
27	CG3690 (GeneID 31047)	DRSC18170	103	170		
28	CG3690 (GeneID 31047)	DRSC18641	87.3	140		
29	bon (GeneID 44235)	DRSC16914	197	150		
30	maca (GeneID 41892)	DRSC15738	121	144		
31	Gr93d (GeneID 117470)	DRSC21941	109	215		
32	reb (GeneID 36275)	DRSC06308	120	191		
33	Den1 (GeneID 36339)	DRSC07195	145	185		
34	CG31016 (GeneID 326113)	DRSC21359	146	104		
35	CG2616 (GeneID 40915)	DRSC15440	123	144		
36	Ir54a + sub	DRSC06459	168	155		
37	CG11906 (GeneID 37209)	DRSC06096	94	97.8		
38	Abp1 (GeneID 39520)	DRSC09693	58.1 (active)	119		
39	lncRNA:CR32661 + lncRNA:CR43157	DRSC19794	78.3	89.1		
40	lncRNA:CR43421 (GeneID 12798123)	DRSC05819	123	118		
41	Wdr24 (GeneID 43505)	DRSC14151	156	157		
42	baz (GeneID 32703)	DRSC20309	109	145		
43	CG12594 (GeneID 41416)	DRSC14532	162	104		
44	CG13698 (GeneID 40000)	DRSC10047	110	130		
45	CG5080 (GeneID 33299)	DRSC00677	136	259		
46	E(Pc) (GeneID 36238)	DRSC05281	83.9 (active)	69.7		
47	E(Pc) (GeneID 36238)	DRSC07408	88.8	137		
48	Dhc93AB (GeneID 42485)	DRSC16644	179	202		
49	CG15611 (GeneID 36930)	DRSC06563	106	120		
50	CG15611 (GeneID 36930)	DRSC06564	176	195		
51	abs (GeneID 40530)	DRSC12372	114	114		
52	CG42700 (GeneID 36330)	DRSC06292	96.6	142		
53	CG42700 (GeneID 36330)	DRSC06293	111	157		
54	CG42700 (GeneID 36330)	DRSC23109	149	178		
55	sing (GeneID 32644)	DRSC19530	92.2	118		
56	CG10822 (GeneID 37274)	DRSC06005	192	123		
57	CG15056 (GeneID 32824)	DRSC19630	95.3 (active)	77.9		
58	tea (GeneID 36027)	DRSC06110	246	172		
59	tea (GeneID 36027)	DRSC06236	73.3	99.2		
60	CG11360 (GeneID 43810)	DRSC17134	124	174		
61	CG2871 (GeneID 31411)	DRSC18230	216	127	10641	160
62	CG2871 (GeneID 31411)	DRSC21719	114	91.8		
63	dy (GeneID 32130)	DRSC20325	116	81.7		
64	Hr83 (GeneID 40783)	DRSC12521	101	129		
65	CG17169 (GeneID 3354995)	DRSC20905	69.4 (active)	140		
66	AnxB11 (GeneID 32612)	DRSC19331	121	139		
67	Arr2 (GeneID 38993)	DRSC09670	83.9	86.1		
68	CG14491 (GeneID 37046)	DRSC06462	143	126		
69	Afg3l2 (GeneID 39922)	DRSC10657	92.3	119		
70	Obp47b + CG7741	DRSC06330	106	141		
71	Sr-CIV (GeneID 33576)	DRSC00575	70.7 (active)	198		
72	Root (GeneID 42860)	DRSC15972	153	149		
73	fidipidine (GeneID 36808)	DRSC07618	156	147		
74	Ser8 (GeneID 36489)	DRSC06891	151	193		
75	Mst33A (GeneID 34578)	DRSC03371	164	175		
76	p115 (GeneID 31698)	DRSC18813	140	129		
77	Tb (GeneID 43212)	DRSC15815	124	101		
78	CG43277 (GeneID 12798350)	DRSC05800	80.7	92.1		
79	CG9344 (GeneID 37372)	DRSC04541	188	105		
80	dah (GeneID 32459)	DRSC20320	121	104		
81	CG14453 (GeneID 40484)	DRSC11710	57.9 (active)	76.2	145	7096
82	CG18302 (GeneID 34452)	DRSC02663	199	144		
83	CG2076 (GeneID 32041)	DRSC19832	135	92.8		

As entered above.
CG31933 (GeneID 326176) [DRSC00457], calcium signal, replicate 2 → 170
For “calcium signal, replicate 2”, Obp47b + CG7741 [DRSC06330] reads 141
Under “retest calcium signal, replicate 1”, CG2871 (GeneID 31411) [DRSC18230] is entered as 10641
Entry for Gr93d (GeneID 117470) [DRSC21941] under “calcium signal, replicate 1”: 109
Entry for CG15611 (GeneID 36930) [DRSC06564] in “calcium signal, replicate 1”: 176
Result of Cpr30F (GeneID 318997) [DRSC02908] under “calcium signal, replicate 2”: 117
